From the supplement of paper PMC8728848
The list shows a part of the results.

Assays:
Assay in all cases: glycan array binding signal (z-score within array); higher = stronger binding
Conditions in all cases: glycan notation: IUPAC condensed, linker removed
Fuc(a1-2)Gal = target: Fuc(a1-2)Gal
Method in brief: (§1)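 Glycan array data came from 3228 arrays in the Consortium for Functional Glycomics database, and only arrays with an available protein sequence were kept. Glycan names were put into IUPAC-condensed notation, and columns mapping to the same glycan were averaged. The binding signal is a within-array Z-score, averaged across arrays of one protein sequence run at different concentrations or buffers and across linkers. A negative Z-score can be read as non-binding.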

Fuc(a1-2)Gal(b1-3)GalNAc = target: Fuc(a1-2)Gal(b1-3)GalNAc
Method in brief: as §1

[1] = target: Fuc(a1-2)Gal(b1-3)GalNAc(a1-3)[Fuc(a1-2)]Gal(b1-4)Glc
Method in brief: as §1

[2] = target: Fuc(a1-2)Gal(b1-3)GalNAc(a1-3)[Fuc(a1-2)]Gal(b1-4)GlcNAc
Method in brief: as §1

[3] = target: Fuc(a1-2)Gal(b1-3)GalNAc(b1-3)Gal
Method in brief: as §1

[4] = target: Fuc(a1-2)Gal(b1-3)GalNAc(b1-3)Gal(a1-4)Gal(b1-4)Glc
Method in brief: as §1

[5] = target: Fuc(a1-2)Gal(b1-3)GalNAc(b1-4)[Neu5Ac(a2-3)]Gal(b1-4)Glc
Method in brief: as §1

Fuc(a1-2)Gal(b1-3)GlcNAc = target: Fuc(a1-2)Gal(b1-3)GlcNAc
Method in brief: as §1

[6] = target: Fuc(a1-2)Gal(b1-3)GlcNAc(b1-2)Man(a1-3)[Fuc(a1-2)Gal(b1-3)GlcNAc(b1-2)Man(a1-6)]Man(b1-4)GlcNAc(b1-4)GlcNAc
Method in brief: as §1

[7] = target: Fuc(a1-2)Gal(b1-3)GlcNAc(b1-3)Gal(b1-4)Glc
Method in brief: as §1

[8] = target: Fuc(a1-2)Gal(b1-3)GlcNAc(b1-3)[Fuc(a1-3)[Gal(b1-4)]GlcNAc(b1-6)]Gal(b1-4)Glc
Method in brief: as §1

[9] = target: Fuc(a1-2)Gal(b1-3)[Fuc(a1-4)]GlcNAc
Method in brief: as §1

[10] = target: Fuc(a1-2)Gal(b1-3)[Fuc(a1-4)]GlcNAc(b1-2)Man(a1-3)[Fuc(a1-2)Gal(b1-3)[Fuc(a1-4)]GlcNAc(b1-2)Man(a1-6)]Man(b1-4)GlcNAc(b1-4)GlcNAc
Method in brief: as §1

[11] = target: Fuc(a1-2)Gal(b1-3)[Fuc(a1-4)]GlcNAc(b1-3)[Fuc(a1-3)[Gal(b1-4)]GlcNAc(b1-6)]Gal(b1-4)Glc
Method in brief: as §1

[12] = target: Fuc(a1-2)Gal(b1-3)[Fuc(a1-4)]GlcNAc(b1-3)[Gal(b1-4)GlcNAc(b1-6)]Gal(b1-4)Glc
Method in brief: as §1

Fuc(a1-2)Gal(b1-4)Glc = target: Fuc(a1-2)Gal(b1-4)Glc
Method in brief: as §1

Fuc(a1-2)Gal(b1-4)Glc6S = target: Fuc(a1-2)Gal(b1-4)Glc6S
Method in brief: as §1

Fuc(a1-2)Gal(b1-4)GlcNAc = target: Fuc(a1-2)Gal(b1-4)GlcNAc
Method in brief: as §1

[13] = target: Fuc(a1-2)Gal(b1-4)GlcNAc(b1-2)Man(a1-3)[Fuc(a1-2)Gal(b1-4)GlcNAc(b1-2)Man(a1-6)]Man(b1-4)GlcNAc(b1-4)GlcNAc
Method in brief: as §1

[14] = target: Fuc(a1-2)Gal(b1-4)GlcNAc(b1-3)Gal(b1-4)GlcNAc
Method in brief: as §1

[15] = target: Fuc(a1-2)Gal(b1-4)GlcNAc(b1-3)Gal(b1-4)GlcNAc(b1-3)Gal(b1-4)GlcNAc
Method in brief: as §1

[16] = target: Fuc(a1-2)Gal(b1-4)GlcNAc(b1-3)GalNAc
Method in brief: as §1

[17] = target: Fuc(a1-2)Gal(b1-4)GlcNAc6S
Method in brief: as §1

[18] = target: Fuc(a1-2)Gal(b1-4)[Fuc(a1-3)]GlcNAc
Method in brief: as §1

[19] = target: Fuc(a1-2)Gal(b1-4)[Fuc(a1-3)]GlcNAc(b1-2)Man(a1-3)[Fuc(a1-2)Gal(b1-4)[Fuc(a1-3)]GlcNAc(b1-2)Man(a1-6)]Man(b1-4)GlcNAc(b1-4)GlcNAc
Method in brief: as §1

[20] = target: Fuc(a1-2)Gal(b1-4)[Fuc(a1-3)]GlcNAc(b1-3)Gal(b1-4)[Fuc(a1-3)]GlcNAc
Method in brief: as §1

[21] = target: Fuc(a1-2)Gal(b1-4)[Fuc(a1-3)]GlcNAc(b1-3)Gal(b1-4)[Fuc(a1-3)]GlcNAc(b1-3)Gal(b1-4)[Fuc(a1-3)]GlcNAc
Method in brief: as §1

Fuc(a1-2)Gal6S(b1-4)Glc = target: Fuc(a1-2)Gal6S(b1-4)Glc
Method in brief: as §1

[22] = target: Fuc(a1-2)Gal6S(b1-4)Glc6S
Method in brief: as §1

[23] = target: Fuc(a1-2)Gal6S(b1-4)GlcNAc
Method in brief: as §1

Fuc(a1-2)[Gal(a1-3)]Gal = target: Fuc(a1-2)[Gal(a1-3)]Gal
Method in brief: as §1

[24] = target: Fuc(a1-2)[Gal(a1-3)]Gal(b1-3)GlcNAc
Method in brief: as §1

[25] = target: Fuc(a1-2)[Gal(a1-3)]Gal(b1-3)GlcNAc(b1-2)Man(a1-3)[Fuc(a1-2)[Gal(a1-3)]Gal(b1-3)GlcNAc(b1-2)Man(a1-6)]Man(b1-4)GlcNAc(b1-4)GlcNAc
Method in brief: as §1

[26] = target: Fuc(a1-2)[Gal(a1-3)]Gal(b1-4)Glc
Method in brief: as §1

[27] = target: Fuc(a1-2)[Gal(a1-3)]Gal(b1-4)GlcNAc
Method in brief: as §1

[28] = target: Fuc(a1-2)[Gal(a1-3)]Gal(b1-4)GlcNAc(b1-2)Man(a1-3)[Fuc(a1-2)[Gal(a1-3)]Gal(b1-4)GlcNAc(b1-2)Man(a1-6)]Man(b1-4)GlcNAc(b1-4)GlcNAc
Method in brief: as §1

[29] = target: Fuc(a1-2)[Gal(a1-3)]Gal(b1-4)[Fuc(a1-3)]GlcNAc
Method in brief: as §1

B1: BSR4 (Toxoplasma gondii), Q95NL6 (protein)
chain: MVMMGSMQQRRGGLRSNARQLLAVCMSGVVFFSSGQAVADNLLEGLLHRTLQQQVEVTSRLTVAGSDAKCDFFTPATQDSPPVSGSLTLSKGRMTATFECSATQALSISTIPTNIEQNVCDPKKTTNGTVCQFGANGSAGTEVTLKDLLETDRIVNWKVNEQREESNKSQKWSLELHNEDLPLTDKAFVVGCQATSAARGTESGKTAACKLTVNVEARASSLAENNVVTCAYGKGSNPNPVEVEMSTEKNTLTINCGSDGSLQPTTYAEEYCVADSKDVNRCSTTRFVEIFPKFLKSWWVTETQKRTSATLTIPQTDLPEADQQFLVGCVPKKTAPEDPKKDKESGTETGAPTSCTVLVTVKAASSASHASPTVQILAAASSAAA
glycan array binding signal (z-score) (Fuc(a1-2)Gal): 0.122
glycan array binding signal (z-score) (Fuc(a1-2)Gal(b1-3)GalNAc): 0.321
glycan array binding signal (z-score) [1]: 0.305
glycan array binding signal (z-score) [2]: -0.631
glycan array binding signal (z-score) [3]: 0.218
glycan array binding signal (z-score) [4]: -0.249
glycan array binding signal (z-score) [5]: -0.267
glycan array binding signal (z-score) (Fuc(a1-2)Gal(b1-3)GlcNAc): -0.078
glycan array binding signal (z-score) [6]: 0.642
glycan array binding signal (z-score) [7]: -0.546
glycan array binding signal (z-score) [8]: -0.452
glycan array binding signal (z-score) [9]: 0.187
glycan array binding signal (z-score) [10]: 0.444
glycan array binding signal (z-score) [11]: -0.043
glycan array binding signal (z-score) [12]: -0.244
glycan array binding signal (z-score) (Fuc(a1-2)Gal(b1-4)Glc): -0.73
glycan array binding signal (z-score) (Fuc(a1-2)Gal(b1-4)Glc6S): 0.481
glycan array binding signal (z-score) (Fuc(a1-2)Gal(b1-4)GlcNAc): -0.406
glycan array binding signal (z-score) [13]: 0.28
glycan array binding signal (z-score) [14]: 0.36
glycan array binding signal (z-score) [15]: 0.028
glycan array binding signal (z-score) [16]: 0.241
glycan array binding signal (z-score) [17]: -0.516
glycan array binding signal (z-score) [18]: 0.395
glycan array binding signal (z-score) [19]: 1.41
glycan array binding signal (z-score) [20]: 0.181
glycan array binding signal (z-score) [21]: 0.448
glycan array binding signal (z-score) (Fuc(a1-2)Gal6S(b1-4)Glc): 0.399
glycan array binding signal (z-score) [22]: 0.24
glycan array binding signal (z-score) [23]: 0.894
glycan array binding signal (z-score) (Fuc(a1-2)[Gal(a1-3)]Gal): 0.054
glycan array binding signal (z-score) [24]: -0.527
glycan array binding signal (z-score) [25]: -0.282
glycan array binding signal (z-score) [26]: -0.614
glycan array binding signal (z-score) [27]: 0.306
glycan array binding signal (z-score) [28]: -0.25
glycan array binding signal (z-score) [29]: 1.17
